Reference: PubChem BioAssay AID504774 (Drosophila RNAi Screening Center, 2011)

Test: 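Knock-downs that shift viability of MMS-exposed cells relative to untreated ones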 (primary screen)
Cell system: Drosophila Kc167 cells
Knock-down reagent: long dsRNA against Drosophila genes, about 0.25 µg dsRNA per well
Time to read-out: about 6 days: 3 days knock-down, then 3 days with or without MMS
Conditions: methyl methanesulphonate 0.004% (w/v) for 3 days after knock-down
Measured: 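Viability in wells given MMS, read as ATP luminescence, normalised by quantiles plate by plate and averaged across replicates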
Direction: mean viability with MMS and viability with MMS: higher = more surviving cells after MMS
The deposit covers about 23,000 reagents; shown is a random part of those with a known target gene and a result. 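Values are quantile-normalised luminescence on an arbitrary scale; higher means more cells surviving MMS.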 Reagents against one gene are numbered here. Names joined by + are all predicted targets of the reagent.

| gene knocked down | dsRNA no. | mean viability with MMS | viability with MMS, replicate 1 | viability with MMS, replicate 2 |
| --- | --- | --- | --- | --- |
| sbm | 1 | 3.53e6 | 3.98e6 | 4.04e6 |
| CG7222 | 1 | 3.70e6 | 4.41e6 | 3.99e6 |
| CG30369 | 1 | 3.69e6 | 4.15e6 | 4.15e6 |
| sw + Sdic4 + Sdic3 + 2 more | 1 | 3.49e6 | 3.95e6 | 3.98e6 |
| Arr2 | 1 | 3.50e6 | 3.91e6 | 4.03e6 |
| CG13117 | 1 | 3.61e6 | 4.11e6 | 4.07e6 |
| SmydA-8 | 1 | 3.55e6 | 3.95e6 | 4.12e6 |
| SmydA-8 | 2 | 3.63e6 | 4.14e6 | 4.05e6 |
| SmydA-8 | 3 | 3.41e6 | 3.93e6 | 3.89e6 |
| puc | 1 | 3.35e6 | 3.80e6 | 3.85e6 |
| CG8545 | 1 | 3.53e6 | 3.97e6 | 4.03e6 |
| Snap29 | 1 | 3.55e6 | 4.07e6 | 4.01e6 |
| lva | 1 | 3.34e6 | 3.74e6 | 3.87e6 |
| CG31826 | 1 | 3.43e6 | 3.93e6 | 3.85e6 |
| CG14329 | 1 | 3.27e6 | 3.72e6 | 3.67e6 |
| pio | 1 | 3.52e6 | 4.01e6 | 3.95e6 |
| CG4968 | 1 | 3.67e6 | 4.19e6 | 4.19e6 |
| elB | 1 | 3.58e6 | 4.07e6 | 4.03e6 |
| elB | 2 | 3.64e6 | 4.10e6 | 4.13e6 |
| Aldh-III | 1 | 2.91e6 | 2.17e6 | 3.42e6 |
| Porin2 | 1 | 3.56e6 | 3.90e6 | 4.19e6 |
| Cpr30F | 1 | 3.63e6 | 4.16e6 | 4.12e6 |
| bbx + waw | 1 | 3.49e6 | 3.96e6 | 3.96e6 |
| bbx + waw | 2 | 3.51e6 | 4.03e6 | 3.96e6 |
| CG10949 | 1 | 3.45e6 | 3.99e6 | 3.81e6 |
| l(1)G0020 | 1 | 3.52e6 | 3.74e6 | 4.26e6 |
| CG12289 | 1 | 3.57e6 | 3.99e6 | 4.08e6 |
| Srp68 | 1 | 3.59e6 | 4.00e6 | 4.14e6 |
| corn | 1 | 3.53e6 | 4.06e6 | 3.94e6 |
| corn | 2 | 3.55e6 | 4.06e6 | 3.97e6 |
| nod | 1 | 3.52e6 | 4.03e6 | 3.96e6 |
| nod | 2 | 3.60e6 | 4.02e6 | 4.13e6 |
| CG6683 | 1 | 3.69e6 | 4.21e6 | 4.17e6 |
| CG3356 | 1 | 3.69e6 | 4.05e6 | 4.14e6 |
| RpL41 | 1 | 3.35e6 | 3.90e6 | 3.85e6 |
| CG33469 | 1 | 3.54e6 | 4.04e6 | 3.99e6 |
| brp | 1 | 3.58e6 | 3.99e6 | 4.10e6 |
| brp | 2 | 3.56e6 | 3.93e6 | 4.13e6 |
| brp | 3 | 3.51e6 | 3.88e6 | 4.09e6 |
| brp | 4 | 3.59e6 | 4.12e6 | 3.98e6 |
| emei | 1 | 3.76e6 | 3.98e6 | 3.90e6 |
| emei | 2 | 3.10e6 | 3.70e6 | 3.79e6 |
| CG34030 | 1 | 3.68e6 | 4.05e6 | 4.22e6 |
| Grl58a | 1 | 3.43e6 | 3.88e6 | 3.88e6 |
| Ythdf | 1 | 3.67e6 | 4.15e6 | 4.17e6 |
| Ythdf | 2 | 3.68e6 | 4.14e6 | 4.19e6 |
| CG1513 | 1 | 3.50e6 | 3.99e6 | 3.93e6 |
| CG1513 | 2 | 1.63e6 | 3.83e6 | – |
| CG1513 | 3 | 3.57e6 | 4.02e6 | 4.06e6 |
| CG33310 | 1 | 3.68e6 | 4.24e6 | 4.05e6 |
| AdamTS-A | 1 | 3.25e6 | 3.74e6 | 3.69e6 |
| AdamTS-A | 2 | 3.62e6 | 4.19e6 | 4.05e6 |
| CG9581 | 1 | 3.52e6 | 3.98e6 | 3.94e6 |
| CG9581 | 2 | 3.40e6 | 3.95e6 | 3.83e6 |
| ptc | 1 | 3.68e6 | 4.00e6 | 4.35e6 |
| ptc | 2 | 3.52e6 | 3.99e6 | 4.00e6 |
| CG12984 | 1 | 3.56e6 | 3.98e6 | 4.07e6 |
| Ipo9 | 1 | 3.58e6 | 4.03e6 | 4.06e6 |
| APP-BP1 | 1 | 3.54e6 | 3.96e6 | 4.07e6 |
| bi | 1 | 3.64e6 | 4.24e6 | 4.02e6 |
| Rab35 | 1 | 3.60e6 | 4.04e6 | 4.16e6 |
| CG32669 | 1 | 3.38e6 | 3.83e6 | 3.84e6 |
| mey | 1 | 3.57e6 | 3.96e6 | 4.14e6 |
| Non3 | 1 | 3.50e6 | 3.99e6 | 3.94e6 |
| trv | 1 | 3.64e6 | 4.15e6 | 4.08e6 |
| trv | 2 | 3.44e6 | 3.87e6 | 3.89e6 |
| trv | 3 | 3.54e6 | 3.90e6 | 4.11e6 |
| trv | 4 | 3.71e6 | 4.23e6 | 4.14e6 |
| Tsf2 | 1 | 3.46e6 | 3.93e6 | 3.92e6 |
| CG14752 | 1 | 3.58e6 | 3.97e6 | 4.11e6 |
| Grip | 1 | 3.11e6 | 3.50e6 | 3.64e6 |
| Grip | 2 | 3.46e6 | 3.97e6 | 3.91e6 |
| Indy-2 + CG33934 | 1 | 3.47e6 | 3.92e6 | 3.95e6 |
| Indy-2 + CG33934 | 2 | 3.55e6 | 4.17e6 | 3.88e6 |
| CG42714 | 1 | 3.51e6 | 4.11e6 | 3.84e6 |
| Herc4 | 1 | 3.64e6 | 4.09e6 | 4.11e6 |
| nis | 1 | 3.78e6 | 4.35e6 | 4.26e6 |
| nst | 1 | 3.48e6 | 3.93e6 | 3.94e6 |
| CG13457 | 1 | 3.73e6 | 4.07e6 | 4.31e6 |
| CG1791 | 1 | 3.60e6 | 3.98e6 | 4.00e6 |
| CG17328 | 1 | 3.44e6 | 3.99e6 | 4.14e6 |
| CG17328 | 2 | 3.73e6 | 4.18e6 | 4.13e6 |
| CG7458 | 1 | 3.75e6 | 4.28e6 | 3.95e6 |
| CG7458 | 2 | 3.79e6 | 4.29e6 | 4.25e6 |
| betaGlu | 1 | 3.54e6 | 4.14e6 | 3.91e6 |
| CG15449 | 1 | 3.62e6 | 4.13e6 | 4.04e6 |
| bero | 1 | 3.74e6 | 4.12e6 | 4.28e6 |
